# Results from one PubChem assay

From PubChem BioAssay record AID1159521 (Tox21, 2015).

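CHO cells with doxycycline-inducible ROR-gamma and a ROR response element luciferase reporter; reduced light output after 16 h marks antagonism.
Each compound was run as a concentration series, mostly reaching 92.4 µM.
The value is the fitted potency (AC50, nM) of the inhibition curve; a lower value means a more potent inhibitor.
Calls follow curve shape; inconclusive means weak, poorly fitted or mixed curves, or an effect in the opposite direction.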

Values are in nM.
All entries here are filed as inconclusive.
Only part of the assay is shown, chiefly results filed as inconclusive.
A potency from a partial, single-point or poor curve is only a rough figure.
An entry listed twice with the same setting is a separate test.

structure,potency (nM),curve
C=CC(=O)OCCOCC(CC)(COCCOC(=O)C=C)COCCOC(=O)C=C,17945,"inhibitor, full curve, poor fit"
O=C(O)c1ccccc1Nc1cccc(C(F)(F)F)c1,68589,"inhibitor, single point"
CC(C)=CCCC(C)CCO (stereo unspecified),77,"inhibitor, full curve, poor fit"
O=C(COc1ccc(Cl)cc1)N1CCN(Cc2ccc3c(c2)OCO3)CC1,43277,"inhibitor, partial curve, poor fit"
CCCCOCCOCCOCCO,12460,"inhibitor, partial curve, poor fit"
OC1(c2ccc(Cl)c(C(F)(F)F)c2)CCN(CCCC(c2ccc(F)cc2)c2ccc(F)cc2)CC1,13333,"inhibitor, partial curve, poor fit"
Cc1cccc(Nc2cc(Cl)nc(SCC(=O)O)n2)c1C,34341,"inhibitor, partial curve, poor fit"
O=C(Oc1cccc2cccnc12)c1ccccc1,21131,"inhibitor, partial curve, poor fit"
C[C@]12C[C@H](O)[C@H]3[C@@H](CCC4=CC(=O)CC[C@@]43C)[C@@H]1CC[C@@H]2C(=O)CO,38649,"inhibitor, partial curve"
c1cc(-c2ccncc2)ccn1,2.2,"inhibitor, full curve, poor fit"
O=C(c1ccc(OCCN2CCCCC2)cc1)c1c(-c2ccc(O)cc2)sc2cc(O)ccc12,29849,"inhibitor, single point"
O=c1n(CC2CO2)c(=O)n(CC2CO2)c(=O)n1CC1CO1 (stereo unspecified),68171,"inhibitor, single point"
CC(O)C(=O)O (stereo unspecified),21689,"inhibitor, single point"
CCO[Si](CCCSSSSCCC[Si](OCC)(OCC)OCC)(OCC)OCC,27333,"inhibitor, partial curve, poor fit"
Cc1cc(Nc2ccc(O)cc2)ccc1N,27167,"inhibitor, single point"
C=CC(=O)OCCC#N,48854,"inhibitor, partial curve, poor fit"
CCCCCCCCCOC(=O)c1ccc(O)cc1,67614,"inhibitor, partial curve, poor fit"
Cn1cc(C(=O)[C@@H]2CCc3nc[nH]c3C2)c2ccccc21,3758,"inhibitor, full curve, poor fit"
COC(=O)C1=C(C)NC(C)=C(C(=O)O[C@@H]2CCCN(Cc3ccccc3)C2)[C@@H]1c1cccc([N+](=O)[O-])c1,3758,"inhibitor, full curve, poor fit"
O[C@@H](c1cc(C(F)(F)F)nc2c(C(F)(F)F)cccc12)[C@H]1CCCCN1,29849,inhibitor
ClC1=C(Cl)C(Cl)(Cl)C(Cl)=C1Cl,76958,"inhibitor, single point"
Nc1ccc(Cl)cc1[N+](=O)[O-],428.4,"inhibitor, single point"
CCCCC(=O)O[C@]1(C(=O)CO)[C@H](C)C[C@H]2[C@@H]3CCC4=CC(=O)C=C[C@]4(C)[C@@]3(F)[C@@H](O)C[C@@]21C,118.8,"inhibitor, single point"
C[C@H](CCC(=O)O)[C@H]1CC[C@H]2[C@@H]3CC[C@@H]4C[C@H](O)CC[C@]4(C)[C@H]3C[C@H](O)[C@]12C,30731,"inhibitor, single point"
Oc1c(Br)cc(Br)c2cccnc12,29849,"inhibitor, partial curve, poor fit"
CCOC(=O)C(C#N)=C(c1ccccc1)c1ccccc1,26603,"inhibitor, partial curve, poor fit"
CCCCOc1ccc(C(=O)CCN2CCCCC2)cc1,33491,"inhibitor, single point"
CCOc1ccc([N+](=O)[O-])cc1,78055,"inhibitor, partial curve, poor fit"
C=CCc1cc(S(=O)(=O)c2ccc(O)c(CC=C)c2)ccc1O,68589,"inhibitor, single point"
O=[N+]([O-])c1cccc(S(=O)(=O)NCCNS(=O)(=O)c2cccc([N+](=O)[O-])c2)c1,29849,"inhibitor, single point"
O=C(O)c1ccccc1Cl,27250,"inhibitor, partial curve, poor fit"
O=Nc1ccc(NO)cc1,71318,"inhibitor, single point"
NC(=O)N1c2ccccc2C=Cc2ccccc21,237.1,"inhibitor, partial curve, poor fit"
O=C(O)Cc1ccc(-c2ccccc2)cc1,595.6,"inhibitor, single point"
COC(=O)CC#N,28756,"inhibitor, full curve, poor fit"
c1ccc2c(c1)-c1cccc3c1c-2cc1ccccc13,68589,"inhibitor, single point"
CC(=O)O[C@H]1CC[C@@]2(C)C(=CC[C@@H]3[C@@H]2CC[C@]2(C)C(C(C)=O)=CC[C@@H]32)C1,13333,"inhibitor, single point"
CN(C[C@@H](CC[N+]12CCC(C3CCCCC3)(CC1)CC2)c1ccc(Cl)c(Cl)c1)C(=O)c1cc(C(F)(F)F)cc(C(F)(F)F)c1,43277,"inhibitor, partial curve, poor fit"
Cc1ccc(-n2[nH]c(C)c(N=Nc3cccc(-c4cccc(C(=O)O)c4)c3O)c2=O)cc1C,23710,"inhibitor, partial curve, poor fit"
CCCCC(CC)COC(=O)CC(C(=O)OCC(CC)CCCC)S(=O)(=O)O (stereo unspecified),74072,"inhibitor, single point"
O=C(Nc1ccc(Cl)cc1)Nc1ccc(Cl)c(Cl)c1,13333,"inhibitor, full curve, poor fit"
CC1CC(OC(=O)c2ccccc2O)CC(C)(C)C1 (stereo unspecified),76176,"inhibitor, single point"
O=C1c2ccccc2C(=O)N1SC1CCCCC1,76958,"inhibitor, single point"
CCCCCCCCCCCCN,68589,"inhibitor, single point"
O=C(Nc1ccc(Cl)cc1)Nc1ccc(Cl)c(Cl)c1,21579,"inhibitor, full curve, poor fit"
CCCCCCC(C)Nc1ccc(Nc2ccccc2)cc1 (stereo unspecified),68589,"inhibitor, single point"
C=CCCCCCCC=C,54593,"inhibitor, single point"
Cc1cc2c(cc1C(F)(F)F)N(C(=O)Nc1ccc(Oc3cccnc3C)nc1)CC2,24689,"inhibitor, partial curve, poor fit"
CC(C)(C)c1cc(/C=C2\SC(=N)NC2=O)cc(C(C)(C)C)c1O,54482,inhibitor
C=C(C)C(=O)OCCCCCCCCCCCC,6113,"inhibitor, single point"
C#C[C@]1(O)CC[C@H]2[C@@H]3CCc4cc(O)ccc4[C@H]3CC[C@@]21C,30637,"inhibitor, partial curve"

Repeated from the top, 4 entries:

structure	potency (nM)	curve
C=CC(=O)OCCOCC(CC)(COCCOC(=O)C=C)COCCOC(=O)C=C	17945	inhibitor, full curve, poor fit
O=C(O)c1ccccc1Nc1cccc(C(F)(F)F)c1	68589	inhibitor, single point
CC(C)=CCCC(C)CCO (stereo unspecified)	77	inhibitor, full curve, poor fit
O=C(COc1ccc(Cl)cc1)N1CCN(Cc2ccc3c(c2)OCO3)CC1	43277	inhibitor, partial curve, poor fit